Assay results reported in the supplement of paper PMC10849652.
The other results are listed elsewhere or left out. Residues, ends and D or L forms follow the SMILES beside them. *: point of attachment. Cbz = O=C(OCc1ccccc1)*

Sequences of proteins named here, by UniProt entry; tags and fusion partners are left off. A change or cut given only in a name is not applied to a line headed by its entry.
UniProt Q9BRY0: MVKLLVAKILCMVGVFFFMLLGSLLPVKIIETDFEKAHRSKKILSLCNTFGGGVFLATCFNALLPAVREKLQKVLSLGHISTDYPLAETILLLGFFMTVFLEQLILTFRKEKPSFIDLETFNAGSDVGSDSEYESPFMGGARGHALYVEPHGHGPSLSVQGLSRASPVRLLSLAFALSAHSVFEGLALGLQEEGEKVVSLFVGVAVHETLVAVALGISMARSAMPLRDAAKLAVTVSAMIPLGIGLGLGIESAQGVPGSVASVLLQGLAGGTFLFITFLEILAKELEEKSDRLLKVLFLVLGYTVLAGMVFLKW
UniProt Q96QD8: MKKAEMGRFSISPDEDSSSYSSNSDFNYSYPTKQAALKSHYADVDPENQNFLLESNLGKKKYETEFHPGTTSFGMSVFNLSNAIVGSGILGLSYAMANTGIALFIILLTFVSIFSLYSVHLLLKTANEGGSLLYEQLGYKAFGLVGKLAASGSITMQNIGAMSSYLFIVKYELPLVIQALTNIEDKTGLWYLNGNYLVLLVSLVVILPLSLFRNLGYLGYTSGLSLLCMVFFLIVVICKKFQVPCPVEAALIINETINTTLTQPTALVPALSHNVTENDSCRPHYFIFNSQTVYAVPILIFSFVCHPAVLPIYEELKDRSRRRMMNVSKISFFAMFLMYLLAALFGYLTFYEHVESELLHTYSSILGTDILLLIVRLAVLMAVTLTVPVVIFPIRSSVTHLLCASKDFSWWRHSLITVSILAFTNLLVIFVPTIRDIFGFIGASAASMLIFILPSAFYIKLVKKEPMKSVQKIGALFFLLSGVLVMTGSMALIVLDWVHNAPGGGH
UniProt Q6NT16: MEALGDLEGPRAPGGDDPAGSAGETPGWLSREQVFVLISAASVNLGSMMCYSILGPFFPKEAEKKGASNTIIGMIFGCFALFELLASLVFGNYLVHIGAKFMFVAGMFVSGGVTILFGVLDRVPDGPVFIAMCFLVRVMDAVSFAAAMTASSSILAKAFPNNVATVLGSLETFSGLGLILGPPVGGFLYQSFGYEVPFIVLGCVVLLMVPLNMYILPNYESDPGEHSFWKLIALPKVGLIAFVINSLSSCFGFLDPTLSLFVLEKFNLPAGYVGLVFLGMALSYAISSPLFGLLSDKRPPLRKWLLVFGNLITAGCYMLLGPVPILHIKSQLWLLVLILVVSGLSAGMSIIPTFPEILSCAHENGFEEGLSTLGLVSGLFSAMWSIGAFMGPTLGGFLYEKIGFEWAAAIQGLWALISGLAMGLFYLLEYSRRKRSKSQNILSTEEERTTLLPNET
UniProt P43003, whole entry, looked up: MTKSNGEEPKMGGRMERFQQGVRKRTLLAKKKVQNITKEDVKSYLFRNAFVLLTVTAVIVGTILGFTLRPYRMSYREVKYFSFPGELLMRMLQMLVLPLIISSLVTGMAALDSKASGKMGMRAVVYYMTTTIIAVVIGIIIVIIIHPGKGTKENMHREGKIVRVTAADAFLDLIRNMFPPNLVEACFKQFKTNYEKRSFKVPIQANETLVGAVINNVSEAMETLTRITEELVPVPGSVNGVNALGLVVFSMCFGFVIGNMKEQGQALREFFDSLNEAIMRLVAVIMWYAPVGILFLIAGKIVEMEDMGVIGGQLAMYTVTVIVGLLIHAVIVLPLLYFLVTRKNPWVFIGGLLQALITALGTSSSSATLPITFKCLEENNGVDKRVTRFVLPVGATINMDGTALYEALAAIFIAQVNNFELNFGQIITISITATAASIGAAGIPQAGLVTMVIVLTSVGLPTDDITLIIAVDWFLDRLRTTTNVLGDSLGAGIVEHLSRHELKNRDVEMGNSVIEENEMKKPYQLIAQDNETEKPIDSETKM
UniProt P78382: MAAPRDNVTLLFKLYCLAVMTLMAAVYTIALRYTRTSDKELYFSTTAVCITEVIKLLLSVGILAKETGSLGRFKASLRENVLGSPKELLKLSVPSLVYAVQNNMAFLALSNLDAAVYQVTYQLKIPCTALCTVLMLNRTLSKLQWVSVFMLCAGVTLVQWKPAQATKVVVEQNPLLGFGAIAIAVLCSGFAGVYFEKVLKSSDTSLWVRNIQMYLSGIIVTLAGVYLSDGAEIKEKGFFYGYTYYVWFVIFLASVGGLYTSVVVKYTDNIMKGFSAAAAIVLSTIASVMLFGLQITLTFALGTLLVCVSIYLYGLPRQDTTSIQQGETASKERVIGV
UniProt P41440: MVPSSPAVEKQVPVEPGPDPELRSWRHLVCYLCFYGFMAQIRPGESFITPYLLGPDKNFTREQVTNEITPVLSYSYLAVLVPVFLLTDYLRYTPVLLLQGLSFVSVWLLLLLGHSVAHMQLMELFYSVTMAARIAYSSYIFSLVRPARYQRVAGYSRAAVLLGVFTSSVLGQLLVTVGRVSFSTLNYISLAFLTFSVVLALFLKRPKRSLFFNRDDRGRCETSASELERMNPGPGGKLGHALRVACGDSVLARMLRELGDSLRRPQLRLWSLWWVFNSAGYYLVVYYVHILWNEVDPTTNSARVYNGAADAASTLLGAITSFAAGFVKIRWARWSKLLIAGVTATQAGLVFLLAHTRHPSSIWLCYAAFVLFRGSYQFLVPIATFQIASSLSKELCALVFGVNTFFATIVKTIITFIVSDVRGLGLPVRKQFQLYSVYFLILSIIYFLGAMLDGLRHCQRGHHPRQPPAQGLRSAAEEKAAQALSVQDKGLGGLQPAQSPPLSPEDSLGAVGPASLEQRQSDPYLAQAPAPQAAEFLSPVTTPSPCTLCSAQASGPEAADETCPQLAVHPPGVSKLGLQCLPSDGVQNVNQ
UniProt O14975, whole entry, looked up: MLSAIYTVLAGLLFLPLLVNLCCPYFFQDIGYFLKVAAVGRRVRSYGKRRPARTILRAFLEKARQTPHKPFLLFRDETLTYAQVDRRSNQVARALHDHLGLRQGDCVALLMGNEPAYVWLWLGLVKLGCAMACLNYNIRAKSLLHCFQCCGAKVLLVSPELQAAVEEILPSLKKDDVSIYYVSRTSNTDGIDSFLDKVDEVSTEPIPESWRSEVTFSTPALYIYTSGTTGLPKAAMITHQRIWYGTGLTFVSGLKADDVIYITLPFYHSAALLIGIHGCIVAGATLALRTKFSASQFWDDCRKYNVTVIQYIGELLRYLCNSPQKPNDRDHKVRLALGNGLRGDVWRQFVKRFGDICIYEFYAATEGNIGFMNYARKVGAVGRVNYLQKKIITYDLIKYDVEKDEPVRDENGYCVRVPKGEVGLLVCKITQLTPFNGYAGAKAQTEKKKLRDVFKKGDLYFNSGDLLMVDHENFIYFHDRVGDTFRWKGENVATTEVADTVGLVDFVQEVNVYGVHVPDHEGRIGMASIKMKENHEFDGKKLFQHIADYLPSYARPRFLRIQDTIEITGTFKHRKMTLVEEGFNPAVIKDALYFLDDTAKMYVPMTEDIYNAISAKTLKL
UniProt Q7Z769: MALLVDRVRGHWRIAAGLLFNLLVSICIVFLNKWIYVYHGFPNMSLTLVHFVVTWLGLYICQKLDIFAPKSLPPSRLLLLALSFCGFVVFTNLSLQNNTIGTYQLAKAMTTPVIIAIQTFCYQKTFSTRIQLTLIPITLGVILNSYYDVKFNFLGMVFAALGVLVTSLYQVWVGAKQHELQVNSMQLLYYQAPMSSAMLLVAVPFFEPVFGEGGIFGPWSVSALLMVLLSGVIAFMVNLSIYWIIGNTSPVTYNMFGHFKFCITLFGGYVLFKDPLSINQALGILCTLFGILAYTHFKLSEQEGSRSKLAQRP
UniProt Q8N1S5: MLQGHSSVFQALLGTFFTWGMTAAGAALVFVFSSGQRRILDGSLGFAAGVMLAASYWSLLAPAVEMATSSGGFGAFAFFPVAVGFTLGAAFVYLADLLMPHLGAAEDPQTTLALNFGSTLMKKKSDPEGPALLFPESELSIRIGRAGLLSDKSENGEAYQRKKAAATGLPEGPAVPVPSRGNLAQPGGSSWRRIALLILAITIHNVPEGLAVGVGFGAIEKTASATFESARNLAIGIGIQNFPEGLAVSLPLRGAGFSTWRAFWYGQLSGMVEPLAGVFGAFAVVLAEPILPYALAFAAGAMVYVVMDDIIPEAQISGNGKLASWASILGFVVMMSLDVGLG

Legend:
Test in all cases: log2 fold change, soluble protein after heating vs DMSO (PISA); higher = thermal stabilisation; K562 cells, 10 uM, 30 min; active = over 0.2 and 3.5 SD of the protein, either way, in both replicates (recomputed)
[1] = compound: C#Cc1cccc(Nc2ncnc3cc(OCCOC)c(OCCOC)cc23)c1 [erlotinib]
Outline: (§1)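 K562 cells at 2×10^6 cells/mL were treated with 10 μM compound for 30 min. Aliquots were heated for 3 min across 48°C-58°C, pooled, and extracted in PBS with 0.5% NP-40 at 4°C; soluble protein was the supernatant after 21,000xg for 90 min. Soluble protein was quantified by TMTpro 16plex LC-MS/MS with channel sums equalised, and reported as log2 fold change in thermal stability against DMSO controls, with values from duplicates.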

[2] = compound: C/C(=N\NC(=O)C1=CC(=CC=C1)S(=O)(=O)N2CCOCC2)/C3=C(C=CC(=C3)Cl)O
Outline: as §1

[3] = compound: C1=CC(=C(C=C1Cl)C2=NC3=NC=CN=C3C(=N2)NC4=CC=NC=C4)F
Outline: as §1

[4] = compound: C1=CC(=CC=C1C2=NC3=C(N2)C=C(C=C3)C(=O)N)OC4=CC=C(C=C4)Cl
Outline: as §1

[5] = compound: C1=CC2=C(C=CC(=C2)/C=C\3/C(=O)NC(=NCC4=CC=CS4)S3)N=C1
Outline: as §1

[6] = compound: C1=CC2=NC=CN=C2C=C1/C=C/3\C(=O)NC(=O)S3
Outline: as §1

[7] = compound: C1=CC=C(C=C1)C2=NC(=C(N2)C3=CC=NC=C3)C4=CC(=C(C=C4)Cl)O
Outline: as §1

[8] = compound: C1=CC=C2C(=C1)C3=NNC4=CC=CC(=C43)C2=O
Outline: as §1

[9] = compound: C1CCN(C1)C(=O)NC2=CC=CC(=C2)NC3=NC=C(C(=N3)NCCC4=CN=CN4)Br
Outline: as §1

[10] = compound: C1CN(CCC1(CC2=CC=C(C=C2)Cl)N)C3=NC=NC4=C3C=CN4
Outline: as §1

[11] = compound: C=CC(=O)N1CCC[C@@H](n2nc(-c3ccc(Oc4ccccc4)cc3)c3c(N)ncnc32)C1 [ibrutinib]
Outline: as §1

[12] = compound: CC(=O)c1cnc2ccc(-c3cc(Cl)c(O)c(Cl)c3)nc2c1N[C@H]1CC[C@H](CN(C)C)CC1
Outline: as §1

[13] = compound: CC(C)(C)Cn1c(N)nc2ccc(-c3[nH]c(C(C)(C)C)nc3-c3ccc(F)cc3)nc21 [ralimetinib]
Outline: as §1

[14] = compound: CC(C)(O)CC(=O)NCCn1ccc2ncnc(Nc3ccc(Oc4cccc(C(F)(F)F)c4)c(Cl)c3)c21
Outline: as §1

[15] = compound: CC(C)C1=C2N=C(C=C(N2N=C1)NCC3=CC=CC=C3)NCCCCCCN
Outline: as §1

[16] = compound: CC(C)C[C@@H](C=O)NC(=O)[C@H](CC(C)C)NC(=O)[C@H](CC(C)C)NC(=O)OCc1ccccc1
Outline: as §1

[17] = compound: CC1=C(C(CC(=O)N1)C2=CC=C(C=C2)C(F)(F)F)C(=O)NC3=C(C=C4C(=C3)C=NN4)F
Outline: as §1

[18] = compound: CC1=C(C2=C(C=C1)C(=O)C3=CC=CC=C3N2CCCN)C
Outline: as §1

[19] = compound: C1COCCN1CCN2C3=CC=CC=C3N=C2NC(=O)C4=CC(=CC=C4)[N+](=O)[O-] [IRAK-1-4 Inhibitor I]
Outline: as §1

[20] = compound: CC(C)N(C[C@H]1O[C@@H](n2cnc3c(N)ncnc32)[C@H](O)[C@@H]1O)[C@H]1C[C@@H](CCc2nc3cc(C(C)(C)C)ccc3[nH]2)C1 [pinometostat]
Outline: as §1

Measured: log2 fold change

SLC39A3 (UniProt Q9BRY0)
inactive: [1] -0.042 | [2] 0.075 | [3] -0.054 | [4] 0.054 | [5] 0.087 | [6] 0.06 | [7] -0.032 | [8] -0.067 | [9] -0.007 | [10] -0.011 | [11] -0.055 | [12] -0.292 | [13] -0.168 | [14] -0.014 | [15] 0.049 | [16] -0.052 | [17] 0.008 | [18] 0.23

SLC38A2 (UniProt Q96QD8)
active: [15] -0.28
inactive: [1] -0.093 | [2] 0.075 | [3] 0.01 | [4] 0.003 | [5] -0.039 | [6] 0.093 | [7] 0.055 | [8] 0 | [9] -0.009 | [10] 0.048 | [19] 0.018 | [11] 0.022 | [12] -0.057 | [13] -0.097 | [14] -0.12 | [16] 0.102 | [20] -0.053 | [18] 0.01

SLC18B1 (UniProt Q6NT16)
inactive: [1] -0.011 | [2] -0.09 | [3] 0.067 | [4] 0.06 | [5] 0.108 | [6] 0 | [7] 0.12 | [8] 0.002 | [9] -0.037 | [10] 0.081 | [19] 0.135 | [11] 0.042 | [12] 0.016 | [13] -0.044 | [14] -0.023 | [16] -0.05 | [20] 0.02 | [18] -0.036
active: [15] -0.356

SLC1A3 (UniProt P43003)
inactive: [1] 0.025 | [2] 0.017 | [3] 0.194 | [4] 0.053 | [5] -0.169 | [6] 0.001 | [7] 0.007 | [8] 0.012 | [9] 0.05 | [10] 0.163 | [11] 0.168 | [12] 0.056 | [13] 0.058 | [14] 0.007 | [15] 0.238 | [16] -0.064 | [18] 0.029

SLC35A1 (UniProt P78382)
inactive: [1] 0.014 | [2] -0.126 | [3] 0.05 | [4] -0.008 | [5] 0.082 | [6] -0.017 | [7] -0.043 | [8] -0.061 | [9] -0.052 | [10] 0.077 | [19] -0.057 | [11] 0.119 | [12] -0.027 | [13] -0.049 | [14] -0.056 | [15] 0.066 | [16] 0.007 | [20] -0.055 | [18] 0.138

SLC19A1 (UniProt P41440)
inactive: [1] -0.023 | [2] 0.029 | [3] 0.159 | [4] 0.022 | [5] -0.006 | [6] 0.103 | [7] 0.118 | [8] -0.008 | [9] -0.009 | [10] 0.08 | [19] 0.017 | [11] -0.025 | [12] -0.034 | [13] 0.005 | [14] -0.061 | [15] 0.104 | [16] 0.045 | [20] 0.052 | [18] 0.073

SLC27A2 (UniProt O14975)
active: [14] 0.366
inactive: [1] 0 | [2] 0.057 | [3] 0.054 | [4] 0.032 | [5] 0.101 | [6] 0.005 | [7] 0.108 | [8] 0.018 | [9] -0.001 | [10] 0.035 | [19] -0.039 | [11] 0.144 | [12] -0.125 | [13] 0.013 | [15] 0.015 | [16] 0.055 | [20] 0.01 | [18] 0.03

SLC35E3 (UniProt Q7Z769)
inactive: [1] -0.007 | [2] -0.001 | [3] 0.142 | [4] -0.093 | [5] 0.074 | [8] 0.014 | [9] 0.091 | [10] -0.043 | [12] -0.032 | [14] -0.535 | [15] 0.065 | [17] -0.012 | [18] 0

SLC39A11 (UniProt Q8N1S5)
inactive: [1] -0.042 | [2] -0.009 | [4] 0.05 | [5] 0.043 | [6] 0.009 | [7] 0.07 | [8] 0.053 | [9] -0.144 | [10] 0.019 | [19] 0.092 | [11] 0.066 | [12] 0.051 | [13] 0.012 | [15] -0.117 | [16] -0.051 | [20] -0.085 | [18] 0.07
